PubChem BioAssay AID686938, Drosophila RNAi Screening Center | 2013

- Assay: 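Knock-downs reducing store-operated calcium influx in Drosophila cells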 (primary screen)
- System: Drosophila S2R+ cells
- Reagent: long dsRNA against Drosophila genes, about 0.25 µg dsRNA per well, roughly 10,000 cells
- Timing: 5 days of knock-down before the calcium assay
- Challenge: thapsigargin (SERCA pump blocker) to empty calcium stores; entry signal taken 4 min after adding it
- Measurement: 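Per-well fluo-4 fluorescence in two replicates, unnormalised, measured in resting cells and 4 min after store depletion by the SERCA blocker thapsigargin; ratio of the two present in few wells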
- Scale: calcium entry signal: higher = stronger calcium signal after store depletion; entry to resting ratio: higher = more calcium entry relative to resting level; resting calcium signal: higher = higher resting calcium signal
- Active means: 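Hit if the duplicate-averaged plate z-score for entry over resting signal is under −3; wells with weak total dye signal (Fmax z < −2) or more than 5 off-targets removed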
- Meaning of the calls: active = strongly reduced calcium entry; inactive = no strong reduction
The screen tested about 23,000 reagents; below is an unselected part of those with a known target gene and a result. In the full data, 75 (0.33%) were called active. 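Raw plate signals without normalisation; calls rest on plate z-scores that were not deposited; ratio present for only 364 wells.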 The record does not give: the dose of the treatment.

no.	predicted target	dsRNA	calcium entry signal, replicate 1 (fluorescence units)	calcium entry signal, replicate 2 (fluorescence units)	entry to resting ratio	resting calcium signal, replicate 1 (fluorescence units)	resting calcium signal, replicate 2 (fluorescence units)	outcome
1	CG3634	DRSC11747	3.46e7	4.88e7		1.80e7	2.29e7	inactive
2	cocoon	DRSC10916	3.70e7	6.32e7		1.93e7	2.52e7	inactive
3	Fum3	DRSC10592	2.84e7	4.42e7		1.53e7	1.98e7	inactive
4	CG14053	DRSC17908	3.60e7	7.80e7	1.9	1.88e7	2.75e7	inactive
5	Wbp2	DRSC09821	5.78e7	4.81e7		3.43e7	2.08e7	inactive
6	CG41520	DRSC21102	3.14e7	3.83e7		1.90e7	1.74e7	inactive
7	CG41520	DRSC21103	5.42e7	5.35e7		2.37e7	2.07e7	inactive
8	CG7910	DRSC16341	4.65e7	3.23e7		2.24e7	1.63e7	inactive
9	Mvb12	DRSC20027	3.33e7	3.21e7		1.94e7	1.56e7	inactive
10	mRpL1	DRSC16251	5.43e7	4.85e7		2.33e7	1.82e7	inactive
11	CG1387	DRSC17904	2.61e7	2.49e7		1.20e7	1.21e7	inactive
12	CG15601	DRSC19670	2.69e7	3.45e7		1.39e7	1.53e7	inactive
13	CG8746	DRSC07257	3.82e7	4.53e7		1.76e7	1.89e7	inactive
14	Cipc	DRSC14898	3.67e7	3.93e7		1.67e7	1.85e7	inactive
15	Cipc	DRSC14900	3.77e7	5.03e7		1.92e7	2.04e7	inactive
16	Cdc27	DRSC11112	3.67e7	2.64e7		3.30e7	1.69e7	inactive
17	kune	DRSC04860	3.89e7	5.39e7		2.02e7	2.27e7	inactive
18	D1	DRSC16638	4.24e7	4.64e7		1.93e7	2.08e7	inactive
19	CG10799	DRSC06002	2.62e7	4.42e7		1.35e7	1.81e7	inactive
20	Rab10	DRSC20572	5.07e7	4.18e7		2.54e7	2.41e7	inactive
21	CG17721	DRSC15253	3.04e7	2.80e7		1.52e7	1.40e7	inactive
22	Dbct	DRSC19951	3.10e7	3.05e7		1.45e7	1.46e7	inactive
23	Fkbp59	DRSC03323	4.16e7	6.71e7		1.97e7	2.60e7	inactive
24	Hibch	DRSC15705	4.44e7	5.16e7		1.79e7	2.27e7	inactive
25	Syx13	DRSC09836	3.01e7	4.15e7		1.68e7	1.94e7	inactive
26	Tmf	DRSC18368	2.94e7	3.99e7		1.55e7	1.81e7	inactive
27	CG13538	DRSC04180	4.19e7	4.63e7		2.05e7	2.10e7	inactive
28	hoka	DRSC08313	3.34e7	7.68e7		1.49e7	2.78e7	inactive
29	fok	DRSC02103	6.43e7	4.85e7		3.33e7	2.15e7	inactive
30	CG33465	DRSC05587	4.81e7	3.59e7		4.33e7	1.74e7	inactive
31	CG17145	DRSC10247	2.08e7	3.65e7		1.04e7	1.61e7	inactive
32	Mkk4	DRSC16739	3.77e7	3.73e7		1.89e7	1.75e7	inactive
33	l(3)mbn	DRSC08793	2.91e7	3.82e7		1.39e7	1.90e7	inactive
34	CG8306	DRSC07141	3.62e7	3.36e7		1.71e7	1.78e7	inactive
35	mei-P26	DRSC17735	2.29e7	2.53e7		1.47e7	1.56e7	inactive
36	mei-P26	DRSC23049	3.34e7	3.67e7		1.80e7	1.70e7	inactive
37	mol	DRSC01431	2.51e7	4.37e7		1.58e7	2.22e7	inactive
38	mol	DRSC01912	8.01e7			3.52e7		inactive
39	mol	DRSC02479	3.75e7	2.59e7		1.79e7	1.22e7	inactive
40	CG13460	DRSC10007	3.28e7	5.10e7		1.74e7	1.94e7	inactive
41	CG8668	DRSC03101	4.51e7			2.21e7		inactive
42	CG11362	DRSC04106	3.95e7	3.90e7		2.07e7	1.79e7	inactive
43	CG11362	DRSC22032	3.46e7	5.64e7		1.60e7	2.83e7	inactive
44	CecA2	DRSC16604	1.95e7	2.81e7		1.08e7	1.31e7	inactive
45	CG12811	DRSC14549	2.36e7	1.84e7		1.14e7	1.01e7	inactive
46	tn (retired record)	DRSC05768	3.90e7	4.90e7		1.80e7	2.37e7	inactive
47	tn (retired record)	DRSC06532	2.32e7	2.03e7		1.11e7	9.91e6	inactive
48	CG31516	DRSC11994	3.13e7	3.56e7		1.70e7	1.56e7	inactive
49	gfzf	DRSC12506	3.98e7	3.14e7		2.35e7	1.60e7	inactive
50	gfzf	DRSC21874	2.68e7	4.91e7		1.57e7	2.37e7	inactive
51	chp	DRSC16925	2.72e7	3.21e7		1.15e7	1.51e7	inactive
52	CG3558	DRSC00615	3.94e7			2.41e7		inactive
53	CG10602	DRSC02075	4.83e7			2.34e7		inactive
54	Fbw5	DRSC03146	3.90e7	3.71e7		1.94e7	1.71e7	inactive
55	PolD1	DRSC11138	4.05e7	4.22e7		2.04e7	1.90e7	inactive
56	Kap-alpha3	DRSC16976	2.55e7	2.80e7		1.31e7	1.56e7	inactive
57	GstE10	DRSC06671	4.48e7	5.36e7		2.16e7	2.53e7	inactive
58	CG30339	DRSC05168	3.33e7	5.22e7		1.56e7	2.26e7	inactive
59	mRpL50	DRSC11015	5.45e7	3.46e7		3.61e7	1.73e7	inactive
60	wcd	DRSC07051	2.83e7	2.88e7		1.52e7	1.68e7	inactive
61	Ranbp16	DRSC20160	3.40e7	3.31e7		1.70e7	1.58e7	inactive
62	Sf3b1	DRSC00535	1.16e7	2.24e7		8.43e6	1.01e7	inactive
63	CG43759	DRSC19464	3.94e7	3.97e7		1.79e7	1.66e7	inactive
64	CG43759	DRSC19543	5.49e7	5.02e7		3.09e7	2.48e7	inactive
65	Chs2	DRSC11830	2.90e7	5.47e7		1.41e7	2.47e7	inactive
66	CG9536	DRSC03254	5.13e7			3.13e7		inactive
67	lncRNA:CR32730	DRSC22957	4.23e7	3.30e7		2.09e7	1.26e7	inactive
68	Anp	DRSC14112	2.70e7	2.41e7		1.42e7	1.25e7	inactive
69	CG8526	DRSC16438	3.21e7	2.95e7		1.65e7	1.47e7	inactive
70	Swip-1	DRSC02083	5.83e7			2.82e7		inactive
71	Swip-1	DRSC02084	3.95e7	5.91e7		2.16e7	2.65e7	inactive
72	eIF4H2	DRSC14582	4.97e7	4.97e7		2.28e7	2.36e7	inactive
73	TwdlG	DRSC12229	3.50e7	5.63e7		1.48e7	2.35e7	inactive
74	ScsbetaG	DRSC11294	3.78e7	6.31e7		1.85e7	2.51e7	inactive
75	CG8209	DRSC10970	3.74e7	4.26e7		1.85e7	2.09e7	inactive
